Experimental findings from publication PMC11544903 are described below.

Chains of the proteins cited; added tags and fusions are not shown.
UniProt P12004: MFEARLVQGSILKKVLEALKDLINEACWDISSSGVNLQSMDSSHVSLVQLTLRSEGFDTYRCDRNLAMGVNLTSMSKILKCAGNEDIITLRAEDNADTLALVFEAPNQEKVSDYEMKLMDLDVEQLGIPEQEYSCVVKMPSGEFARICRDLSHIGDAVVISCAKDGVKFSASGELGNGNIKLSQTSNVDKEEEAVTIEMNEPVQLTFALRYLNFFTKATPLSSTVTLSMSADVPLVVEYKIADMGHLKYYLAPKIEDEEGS
UniProt Q96GD4: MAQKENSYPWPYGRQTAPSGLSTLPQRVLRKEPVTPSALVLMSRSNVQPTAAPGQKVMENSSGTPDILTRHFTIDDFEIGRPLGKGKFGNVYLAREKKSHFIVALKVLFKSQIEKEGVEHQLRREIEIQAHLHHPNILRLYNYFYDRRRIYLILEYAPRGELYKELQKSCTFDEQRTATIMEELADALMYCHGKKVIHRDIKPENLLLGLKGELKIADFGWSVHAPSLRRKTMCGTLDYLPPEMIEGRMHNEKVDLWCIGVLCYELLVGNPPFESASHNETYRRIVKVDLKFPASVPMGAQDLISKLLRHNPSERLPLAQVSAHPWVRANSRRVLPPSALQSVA
UniProt Q9NQS7: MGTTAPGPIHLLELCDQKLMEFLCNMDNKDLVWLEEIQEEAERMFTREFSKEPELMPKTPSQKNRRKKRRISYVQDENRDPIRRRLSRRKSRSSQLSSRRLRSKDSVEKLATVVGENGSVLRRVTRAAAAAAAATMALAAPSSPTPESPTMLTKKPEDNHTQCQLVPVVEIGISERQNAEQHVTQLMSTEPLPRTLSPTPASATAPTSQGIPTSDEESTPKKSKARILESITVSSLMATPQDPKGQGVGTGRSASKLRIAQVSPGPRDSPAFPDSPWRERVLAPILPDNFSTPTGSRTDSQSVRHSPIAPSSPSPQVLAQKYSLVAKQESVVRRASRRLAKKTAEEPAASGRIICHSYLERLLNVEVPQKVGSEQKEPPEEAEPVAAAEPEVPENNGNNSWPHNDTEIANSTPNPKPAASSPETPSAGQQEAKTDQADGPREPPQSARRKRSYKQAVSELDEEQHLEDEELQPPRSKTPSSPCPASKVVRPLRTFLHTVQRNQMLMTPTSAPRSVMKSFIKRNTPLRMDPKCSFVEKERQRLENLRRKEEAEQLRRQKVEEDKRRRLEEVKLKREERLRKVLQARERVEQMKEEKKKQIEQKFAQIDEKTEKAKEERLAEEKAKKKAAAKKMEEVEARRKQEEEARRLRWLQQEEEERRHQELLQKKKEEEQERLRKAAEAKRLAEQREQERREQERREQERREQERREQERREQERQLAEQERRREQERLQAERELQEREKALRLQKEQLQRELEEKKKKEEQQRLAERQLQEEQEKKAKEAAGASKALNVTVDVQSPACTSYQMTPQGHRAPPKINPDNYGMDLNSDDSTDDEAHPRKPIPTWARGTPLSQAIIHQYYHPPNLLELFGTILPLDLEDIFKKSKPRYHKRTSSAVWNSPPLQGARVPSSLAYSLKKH
UniProt O15392: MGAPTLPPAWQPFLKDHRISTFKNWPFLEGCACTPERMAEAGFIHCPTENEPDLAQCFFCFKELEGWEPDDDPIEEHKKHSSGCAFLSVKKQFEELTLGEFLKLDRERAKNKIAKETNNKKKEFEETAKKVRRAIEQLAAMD

No constants are given. Whether binding was seen depends on the method and setting. In cells and extracts the contact can be indirect. Some results given as binding are weak or reduced against the parent protein; the word gives no strength. For some assays here: Where a sequence is shown, tags or fusion partners need not be part of it.

For assay [1], the target named is T1, FLAG-tagged polymerase Eta (FLAG-Pol η) (UniProt Q9Y253).
T1 sequence: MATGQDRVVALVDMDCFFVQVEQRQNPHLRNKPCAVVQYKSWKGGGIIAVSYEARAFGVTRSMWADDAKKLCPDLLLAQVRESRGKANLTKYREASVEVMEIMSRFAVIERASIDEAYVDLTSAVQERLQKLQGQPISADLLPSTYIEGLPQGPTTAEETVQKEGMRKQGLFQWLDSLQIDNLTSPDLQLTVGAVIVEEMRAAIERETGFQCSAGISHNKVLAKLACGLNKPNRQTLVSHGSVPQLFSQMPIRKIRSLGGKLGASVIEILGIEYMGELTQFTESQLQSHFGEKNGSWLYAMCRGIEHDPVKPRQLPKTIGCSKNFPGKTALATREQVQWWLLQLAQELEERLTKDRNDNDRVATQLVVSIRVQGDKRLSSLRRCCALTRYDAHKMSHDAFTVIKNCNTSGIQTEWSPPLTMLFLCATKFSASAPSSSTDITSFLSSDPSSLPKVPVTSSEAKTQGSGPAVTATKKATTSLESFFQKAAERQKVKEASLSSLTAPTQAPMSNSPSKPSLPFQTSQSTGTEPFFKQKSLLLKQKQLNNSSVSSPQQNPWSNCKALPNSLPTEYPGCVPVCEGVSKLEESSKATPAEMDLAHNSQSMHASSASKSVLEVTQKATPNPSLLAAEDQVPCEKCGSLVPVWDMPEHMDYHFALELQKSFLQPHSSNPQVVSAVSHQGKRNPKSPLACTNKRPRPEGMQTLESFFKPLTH
The assay can be described thus: co-IP; 293T cells transfected with FLAG-Pol η, with or without myc-tagged CPC members; irradiated with 10 Gy and incubated for 2 h; chromatin extraction before immunoprecipitation of FLAG-Pol η; immunoblot.

The target of assay [2] is proliferating cell nuclear antigen (PCNA), endogenous in HeLa cells (human (endogenous in HeLa)) (UniProt P12004). The assay can be described thus: proximity ligation; in situ PLA (Duolink, mouse/rabbit probes) of endogenous proteins in HeLa cells; signals at distances of less than 40 nm; PLA signals per nucleus counted in >150 cells.
Assay [3] deals with T2, polymerase η (Pol η) precipitated with Pol η-specific antibodies from 293T lysates (human (endogenous in 293T)) (UniProt Q9Y253).
T2 sequence: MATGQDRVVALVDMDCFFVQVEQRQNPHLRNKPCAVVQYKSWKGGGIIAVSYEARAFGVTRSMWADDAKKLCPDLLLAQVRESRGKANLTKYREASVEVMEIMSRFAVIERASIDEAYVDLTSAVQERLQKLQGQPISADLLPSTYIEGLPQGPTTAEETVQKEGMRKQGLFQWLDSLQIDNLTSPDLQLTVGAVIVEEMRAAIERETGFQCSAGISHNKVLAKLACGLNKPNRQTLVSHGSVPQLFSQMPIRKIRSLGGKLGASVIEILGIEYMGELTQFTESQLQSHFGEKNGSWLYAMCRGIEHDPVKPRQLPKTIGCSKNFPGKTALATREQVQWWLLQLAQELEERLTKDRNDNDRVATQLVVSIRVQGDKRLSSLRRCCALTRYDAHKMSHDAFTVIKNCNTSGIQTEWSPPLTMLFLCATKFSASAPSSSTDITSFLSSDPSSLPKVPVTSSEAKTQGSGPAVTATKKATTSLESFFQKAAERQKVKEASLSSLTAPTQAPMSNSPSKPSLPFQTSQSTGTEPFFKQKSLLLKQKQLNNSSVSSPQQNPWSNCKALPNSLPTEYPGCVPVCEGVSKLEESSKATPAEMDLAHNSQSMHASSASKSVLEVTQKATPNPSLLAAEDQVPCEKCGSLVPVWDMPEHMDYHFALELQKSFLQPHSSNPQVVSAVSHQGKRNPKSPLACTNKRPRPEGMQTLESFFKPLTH
The assay can be described thus: co-IP; 293T cells transfected with POLDIP2 wildtype-, T216E- or AuroraB-GFP; lysates immunoprecipitated with Pol η-specific antibodies and immunoblotted for GFP. In general terms: A western blot detects proteins with antibodies after separation by electrophoresis.

The target in assay [4] is GFP-PCNA (UniProt P12004). The assay can be described thus: co-IP; 293T cells co-transfected with GFP-PCNA and myc-INCENP wt or PIPmut; lysates in interaction buffer (50 mM Tris pH 8, 150 mM NaCl, 5 mM EDTA, 0.5% NP40, 1 mM DTT); precipitated with magnetic α-GFP beads (μMACS), uncoupled beads as control; immunoblot.

As for “Aurora B kinase, endogenous in 293T cells (from UniProt Q96GD4 1-344) (enzyme)”, the binding result in assay [1] is “binds”. Turning to “Aurora B kinase, endogenous in HeLa cells (from UniProt Q96GD4 1-344) (enzyme)”, the binding entry in assay [2] is listed as “binds”. For “AuroraB-GFP (from UniProt Q96GD4 1-344) (enzyme)”, the binding result in assay [3] is “binds”. With “INCENP, endogenous in HeLa cells (from UniProt Q9NQS7 1-918)”, in assay [2], the binding result is given as “binds”. For the molecule “Survivin, endogenous in 293T cells (from UniProt O15392 1-142)”, the binding result in assay [1] was “binds”. Turning to “Survivin, endogenous in HeLa cells (from UniProt O15392 1-142)”, the binding result in assay [2] is on record as “binds”.

“myc-INCENP wildtype (from UniProt Q9NQS7 1-918)”: in assay [4], the binding result is on record as “binds”. As for “myc-tagged Aurora B (from UniProt Q96GD4 1-344) (enzyme)”, the binding entry in assay [1] was “binds”.

For “myc-tagged Survivin (from UniProt O15392 1-142)”, the binding entry in assay [1] is listed as “binds”.

B1: POLDIP2 wildtype-GFP (protein, UniProt Q9Y2S7 52-368)
chain: SSRNRPEGKVLETVGVFEVPKQNGKYETGQLFLHSIFGYRGVVLFPWQARLYDRDVASAAPEKAENPAGHGSKEVKGKTHTYYQVLIDARDCPHISQRSQTEAVTFLANHDDSRALYAIPGLDYVSHEDILPYTSTDQVPIQHELFERFLLYDQTKAPPFVARETLRAWQEKNHPWLELSDVHRETTENIRVTVIPFYMGMREAQNSHVYWWRYCIRLENLDSDVVQLRERHWRIFSLSGTLETVRGRGVVGREPVLSKEQPAFQYSSHVSLQASSGHMWGTFRFERPDGSHFDVRIPPFSLESNKDEKTPPSGLHW
As for B1, the binding entry in assay [3] is given as “binds”.

B2: Borealin, endogenous in HeLa cells (protein, UniProt Q53HL2 1-280)
chain: MAPRKGSSRVAKTNSLRRRKLASFLKDFDREVEIRIKQIESDRQNLLKEVDNLYNIEILRLPKALREMNWLDYFALGGNKQALEEAATADLDITEINKLTAEAIQTPLKSAKTRKVIQVDEMIVEEEEEEENERKNLQTARVKRCPPSKKRTQSIQGKGKGKRSSRANTVTPAVGRLEVSMVKPTPGLTPRFDSRVFKTPGLRTPAAGERIYNISGNGSPLADSKEIFLTVPVGGGESLRLLASDLQRHSIAQLDPEALGNIKKLSNRLAQICSSIRTHK
For the molecule B2, the binding entry in assay [2] is on record as “binds”.
